Our source for the AC50 values is PubChem BioAssay AID493014 (National Center for Advancing Translational Sciences (NCATS), 2011).

Each structure is given as a SMILES string. “And” between values parts separate entries of the source, which are not always exact repeats. Equal values may be shown once. Some of the results follow. The main result of the screen is listed elsewhere. These columns were measured beside it and carry no call. Most of these compounds were active or inconclusive in the main read-out, so they are no random draw. Potencies come from curve fits of mixed quality, noted in brackets.

The experiment is described as follows: qHTS Assay to Find Inhibitors of Chronic Active B-Cell Receptor Signaling. Conditions: ABC-DLBCL IkBa-CBG/CBR reporter, luminescence ratio (green luciferase fused to IkBa over red control in TMD8 lymphoma cells), 4 h. In a few lines: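 Cell line TMD8 (human ABC DLBCL), stably expressing tet-inducible CBG68-IkBa fusion and CBR; IMDM/0.5% FBS; cpd up to 46 uM; dox induction, 4 h, 37C/5% CO2; dual luminescence; green/red ratio; MG132 control.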
(In general: In qHTS, concentration-response curves come from the screen itself.)

Setting [1] is: measured here: CBR red luminescence, cell number.
The mark [2] stands for this setting: measured here: IkBa-CBG green luminescence.

Consider `Oc1ccc(NCc2ccc(OCc3ccccc3)cc2)cc1`, for which the AC50 is 6.31 µM [rising, single point] under setting [1] and 12.6 µM [falling, single point] under setting [2].

`COc1ccc(Cl)cc1C(=O)NCc1cn(C)nc1C`: the AC50 under setting [1] was 14.1 µM [falling, single point].

With `CC(=O)Oc1ccc(/C=C2\C=C(c3ccc(C)cc3)OC2=O)cc1`, under setting [1], the AC50 was 8.91 µM [falling, single point].

Turning to `CCOc1ccc(OCCC(=O)OCC(=O)Nc2cc(S(=O)(=O)N3CCOCC3)ccc2C)cc1`, the AC50 under setting [1] was 1.64 µM [falling, full curve].

As for `O=P(c1ccc2c(c1)OCCO2)(N1CCOCC1)N1CCOCC1`, under setting [1], the AC50 is 14.1 µM [falling, partial curve, poor fit].

For the molecule `Cn1c(-c2ccc(F)cc2)cc2onc(-c3c(F)cccc3Cl)c2c1=O`, the half-maximal activity concentration (AC50) under setting [1] was 4.11 µM [rising, partial curve, poor fit].

Regarding `COc1ccc2[nH]c3c(=O)n(Cc4ccco4)cnc3c2c1`, the AC50 under setting [1] is 4.47 µM [falling, full curve, poor fit].

For the molecule `O=C(COC(=O)c1ccc(S(=O)(=O)N2CCOCC2)cc1)NCc1ccccc1`, the AC50 under setting [1] is 23.1 µM [rising, partial curve, poor fit].

`CC(C)(C)c1ccc(C(=O)NCc2nnc(SCC(=O)NC3CCCCC3)o2)cc1`: under setting [1], the AC50 is 35.5 µM [falling, single point].

On to `Cc1cccc2c(N)c3c(nc12)N(C)CC3`, for which the AC50 under setting [1] is 35.5 µM [falling, single point].

As for `COc1ccc(C(=O)/C=C/c2cn(CC(O)CN3CCOCC3)c3ccccc23)cc1` (stereo unspecified), the AC50 under setting [1] was 23.1 µM [falling, single point].

On to `CNc1ncnc2c1ncn2[C@@H]1O[C@H](CO)[C@@H](O)[C@H]1O`, for which the AC50 reads like this: under setting [1], 14.6 µM [rising, partial curve, poor fit]; under setting [2], 20.6 µM [falling, single point].

As to `CCCCCc1cc(OC)cc2c1C(=O)OC(C)(C)O2`, under setting [1], the AC50 is 18.4 µM [rising, single point].

Turning to `O=C(c1cc(-c2ccc(Cl)cc2)on1)N1CCN(c2ccc(F)cc2)CC1`, under setting [1], the concentration at half-maximal activity (AC50) was 10 µM [falling, partial curve, poor fit].

On to `COc1ccc2c(c1)C(NC(=O)C(F)(F)F)CC2=O` (stereo unspecified), for which, under setting [1], the AC50 is 29.1 µM [rising, single point].

As to `COc1ccc2o/c(=N\O)c(C(=O)Nc3ccccc3OC)cc2c1`, the AC50 under setting [1] was 0.13 µM [falling, full curve].

Regarding `CC(C)Sc1nc2c(c(=O)[nH]1)C(c1cccs1)C1=C(CC(C)(C)CC1=O)N2` (stereo unspecified), the AC50 under setting [1] was 25.9 µM [falling, partial curve].

With `CC(C)=CCCC1=CCC(/C=N/NC(N)=O)C(C)C1` (stereo unspecified), under setting [1], the AC50 is 23.1 µM [rising, single point].

Take `Cc1cn(C(=O)CN2C(=O)c3ccccc3C2=O)c(C)n1`: the AC50 under setting [1] was 0.13 µM [rising, full curve, poor fit].

Take `Cc1ccc(C(=O)Nc2ccsc2C(=O)O)cc1`: the AC50 under setting [1] was 5.01 µM [falling, partial curve].

As for `Oc1ccccc1CNc1nccs1`, under setting [1], the AC50 was 3.55 µM [falling, single point].

For the molecule `CN(C)CCCNc1cc(C(C)(C)C)nc2c(-c3ccccc3)cnn12`, the AC50 under setting [1] is 35.5 µM [falling, single point].

`Cc1ccc(-c2nn(-c3ccccc3)cc2/C=C/C(=O)O)o1`: the AC50 under setting [1] is 22.4 µM [falling, partial curve, poor fit].

For the molecule `O=C(CSc1nc2ccccc2c(=O)n1-c1ccc(F)cc1)Nc1cc(S(=O)(=O)N2CCOCC2)ccc1Cl`, the AC50 under setting [1] was 5.8 µM [falling, full curve].

For `Cc1cccc(NC(=S)N2CCN(Cc3ccc4c(c3)OCO4)CC2)c1C`, the AC50 under setting [1] was 9.2 µM [rising, partial curve, poor fit].

Regarding `COc1cc(C(=O)OCC(=O)NCc2ccc(F)cc2)cc(NC(=O)c2cccs2)c1OC`, the AC50 under setting [1] was 16.4 µM [falling, partial curve, poor fit].

As for `Cc1ccc(/C=N/NC(=O)c2cc(C)oc2C)cc1`, under setting [1], the half-maximal activity concentration (AC50) is 4.47 µM [falling, partial curve].

For the molecule `COC(=O)c1ccc(C2C(C(=O)c3cc4ccccc4o3)=C(O)C(=O)N2c2cc(C)on2)cc1` (stereo unspecified), under setting [1], the AC50 is 11.2 µM [falling, partial curve, poor fit].

For the molecule `O=C(NC(=S)Nc1cccc2cnccc12)c1ccccc1`, the half-maximal activity concentration (AC50) under setting [1] was 2.82 µM [falling, full curve, poor fit].

Regarding `COc1ccccc1C1C(C(=O)c2ccc(C)o2)=C(O)C(=O)N1c1cc(C)on1` (stereo unspecified), under setting [1], the AC50 was 15.8 µM [falling, single point].

Consider `CS(=O)(=O)N(Cc1ccc(Cl)cc1)c1ccc(C(=O)N2CCN(c3ccccc3)CC2)cc1`, for which the AC50 under setting [1] is 2.06 µM [falling, full curve, poor fit].

With `CCc1nnc(NC(=O)CSc2ncc(-c3ccccc3)[nH]2)s1`, the half-maximal activity concentration (AC50) under setting [1] is 0.651 µM [rising, partial curve, poor fit].

As to `C/C(CCC1CC(C)(C)OC1=O)=N\NC(N)=S` (stereo unspecified), the AC50 under setting [1] is 31.6 µM [rising, single point] and the AC50 under setting [2] is 22.4 µM [falling, single point].

Turning to `CCOC(=O)N1CC=C2C(C#N)=C(N)C(C#N)(C#N)[C@H](c3ccsc3)[C@H]2C1`, the AC50 under setting [1] is 28.2 µM [falling, single point].

Regarding `O=C(c1ccccn1)N(Cc1ccco1)C1(C(=O)NC2CCCCC2)CCCCC1`, the AC50 under setting [1] was 20.6 µM [rising, single point].

In the case of `CC(=O)n1cc(N(C(=O)CCl)c2ccc(Cl)cc2)c2ccccc21`, the AC50 by setting is: under setting [1], 5.01 µM [falling, partial curve]; under setting [2], 3.55 µM [rising, full curve].

On to `O=C(Nc1ccc2c(c1)Cc1ccccc1-2)c1ccco1`, for which the AC50 under setting [1] was 15.8 µM [falling, single point].

For the molecule `Cc1ccc(NC(=O)Cn2nc(C(=O)O)c3ccccc3c2=O)cc1S(=O)(=O)N1CCOCC1`, the AC50 is 14.6 µM [rising, partial curve, poor fit] under setting [1] and 20.6 µM [falling, partial curve, poor fit] under setting [2].

Regarding `CCn1c(NCc2ccccn2)nc2c1c(=O)n(C)c(=O)n2C`, under setting [2], the AC50 was 18.4 µM [rising, partial curve, poor fit].

As to `CCOc1cc2[nH]c(=S)n(Cc3ccc(C(=O)NCCOC)cc3)c(=O)c2cc1OCC`, under setting [1], the AC50 was 0.164 µM [falling, full curve, poor fit].

With `COc1ccc(NC(=O)CSc2ncnc3c2cnn3Cc2ccccc2)cc1OC`, the AC50 under setting [1] was 1.16 µM [falling, full curve].

On to `CN1CCc2c(sc(/N=C/c3c[nH]c4ccccc34)c2C(N)=O)C1`, for which, under setting [1], the AC50 is 7.08 µM [falling, partial curve].

As for `O=C(CN1CCN(S(=O)(=O)c2ccc(Cl)cc2)CC1)NC1CCCC1`, the AC50 under setting [1] was 0.0891 µM [falling, full curve, poor fit].

Regarding `O=C(COC(=O)c1cc(S(=O)(=O)N2CCOCC2)ccc1F)c1ccc[nH]1`, the AC50 under setting [1] was 7.31 µM [rising, partial curve, poor fit].

`CCCCCCCCCC(=O)N[C@@H]1c2cc(OC)c(OC)cc2C[C@H]1O`: under setting [2], the AC50 is 18.4 µM [falling, single point].

As for `COC(=O)C1=C(C)N(Cc2ccccc2)C(=NCc2ccc(OC)cc2)N[C@H]1c1ccccc1`, under setting [1], the AC50 is 25.1 µM [falling, single point] and 14.6 µM [falling, single point].

For `O=C(CSCc1cnn(-c2ccccc2)c1-n1cccc1)N1CCN(Cc2ccccc2)CC1`, the AC50 under setting [1] is 29.1 µM [falling, single point].

Regarding `Nc1nc(NCc2ccccc2)n(-c2ccccc2)n1`, the half-maximal activity concentration (AC50) under setting [1] is 2.51 µM [rising, partial curve, poor fit].

Consider `Cn1cccc1C(=O)NC(=O)COC(=O)CNC(=O)CNC(=O)c1ccc(Cl)cc1Cl`, for which, under setting [1], the AC50 is 11.2 µM [rising, partial curve, poor fit].

As for `O=C(NNC(=O)C1CC1)Nc1ccc(Cl)cc1`, the AC50 under setting [1] is 2.82 µM [rising, full curve].

`COc1ccc(C(=O)N/N=C(\C)c2ccc3c(c2)C2C=CCC2C(c2ccccc2)N3)cc1` (stereo unspecified): the AC50 under setting [1] is 6.51 µM [falling, full curve, poor fit].

For `Cc1cccc2sc(NC(=O)CSc3nnnn3C)nc12`, the AC50 under setting [1] was 8.91 µM [falling, partial curve, poor fit].

Turning to `Cc1ccc(Nc2c(-c3ccc(C)o3)nc3cnccn23)cc1`, the AC50 under setting [1] was 1.64 µM [rising, partial curve, poor fit].

For `O=[N+]([O-])c1cccc(OCCN2CCC(Cc3ccccc3)CC2)c1`, the AC50 under setting [1] was 35.5 µM [falling, partial curve, poor fit].

For the molecule `Cc1nc(NC(=O)COc2ccccc2)sc1C(=O)Nc1ccccc1`, the AC50 under setting [1] was 9.2 µM [falling, partial curve, poor fit].

With `CCCOP(=O)(c1ccc(N(C)C)cc1)C(O)c1ccc(Cl)cc1` (stereo unspecified), the AC50 under setting [1] was 12.6 µM [rising, single point].

In the case of `CN(CC(=O)Nc1ccccc1Sc1ccccc1)C1CCCCC1`, under setting [1], the AC50 was 25.1 µM [rising, single point].

Turning to `Cc1ccc(N2C(=O)c3ccccc3C2C(=O)c2cc(C)ccc2O)cc1` (stereo unspecified), the concentration at half-maximal activity (AC50) under setting [1] was 29.1 µM [falling, single point].

For `Cc1ccccc1CSc1nnc(-c2ccccc2)c(=O)[nH]1`, the AC50 under setting [1] was 2.51 µM [falling, full curve, poor fit].

As to `O=C(CONS(=O)(=O)c1ccc(Cl)cc1)NCCNc1ncc(C(F)(F)F)cc1Cl`, the AC50 under setting [1] is 12.6 µM [falling, single point].

With `CC(=O)N1CCN(Cc2nc3cc(NC(=O)c4ccccc4C)ccc3n2C)CC1`, the AC50 under setting [1] was 10 µM [falling, partial curve, poor fit].

For orientation: AC50 means the concentration at which the activity in the assay is half-maximal.
